Data reported in publication PMC3182244.
No constants are given. Whether binding was seen depends on the method and setting. Binding seen in cells or lysates may run through a third protein. Some entries that bind do so weakly or less than the wild type. Where a sequence is shown, tags or fusion partners need not be part of it.

T1: His-tagged Tob38 (strain Tob38HT) (Neurospora crassa) (UniProt V5IPB4)
T1 sequence: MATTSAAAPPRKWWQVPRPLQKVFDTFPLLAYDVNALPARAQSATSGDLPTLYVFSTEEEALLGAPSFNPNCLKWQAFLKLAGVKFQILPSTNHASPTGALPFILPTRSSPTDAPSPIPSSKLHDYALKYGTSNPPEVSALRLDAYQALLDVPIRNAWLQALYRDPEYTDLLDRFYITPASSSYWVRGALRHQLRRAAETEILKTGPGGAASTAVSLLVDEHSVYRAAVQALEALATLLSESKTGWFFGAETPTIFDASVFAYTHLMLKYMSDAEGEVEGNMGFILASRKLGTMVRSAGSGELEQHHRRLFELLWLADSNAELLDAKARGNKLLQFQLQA

T2: His-tagged Tob37 (strain Tob37HT) (Neurospora crassa) (UniProt Q7SFC4)
T2 sequence: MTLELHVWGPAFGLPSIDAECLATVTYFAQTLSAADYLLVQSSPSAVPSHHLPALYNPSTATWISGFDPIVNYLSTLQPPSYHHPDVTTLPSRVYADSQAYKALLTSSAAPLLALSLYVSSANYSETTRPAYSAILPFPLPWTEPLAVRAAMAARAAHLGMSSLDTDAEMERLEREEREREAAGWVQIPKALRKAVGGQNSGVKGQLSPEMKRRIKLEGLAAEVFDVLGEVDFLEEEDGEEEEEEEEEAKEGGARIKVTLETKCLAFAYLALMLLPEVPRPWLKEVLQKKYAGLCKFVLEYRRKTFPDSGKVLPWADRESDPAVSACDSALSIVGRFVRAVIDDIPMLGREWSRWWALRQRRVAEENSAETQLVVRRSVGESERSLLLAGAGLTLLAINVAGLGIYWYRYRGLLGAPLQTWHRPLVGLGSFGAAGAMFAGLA


What was measured:
[1] = target: T1, His-tagged Tob38 (strain Tob38HT) (Neurospora crassa); experiment: pull-down; His-tagged TOB subunit purified from isolated N. crassa mitochondria on Ni-NTA resin (as in ref. 16); eluate run on BNGE, or BNGE then SDS-PAGE (two dimensions), and blotted with antibodies to Tob55, Tob38, Tob37 or Mdm10
[2] = target: T2, His-tagged Tob37 (strain Tob37HT) (Neurospora crassa); experiment: as above

| Binder | binding [1] | binding [2] |
| --- | --- | --- |
| Tob37 (protein, UniProt Q7SFC4 1-442) MTLELHVWGPAFGLPSIDAECLATVTYFAQTLSAADYLLVQSSPSAVPSHHLPALYNPSTATWISGFDPIVNYLSTLQPPSYHHPDVTTLPSRVYADSQAYKALLTSSAAPLLALSLYVSSANYSETTRPAYSAILPFPLPWTEPLAVRAAMAARAAHLGMSSLDTDAEMERLEREEREREAAGWVQIPKALRKAVGGQNSGVKGQLSPEMKRRIKLEGLAAEVFDVLGEVDFLEEEDGEEEEEEEEEAKEGGARIKVTLETKCLAFAYLALMLLPEVPRPWLKEVLQKKYAGLCKFVLEYRRKTFPDSGKVLPWADRESDPAVSACDSALSIVGRFVRAVIDDIPMLGREWSRWWALRQRRVAEENSAETQLVVRRSVGESERSLLLAGAGLTLLAINVAGLGIYWYRYRGLLGAPLQTWHRPLVGLGSFGAAGAMFAGLA | binds | – |
| Mdm10 (protein, UniProt Q7SBE0 1-480) MREFMNYITNAFYGATGWNEDNKYNELNATSRELIDFPLPRGLRLTLSSLATPHFATSYQLGSVGVVDGSISYLHSSIPLTHIAAQSDKIPLPALLRCYRRLHDLRSPGQQHYILDADPLSGLPPPPQSARALLGAASDAAVAGGALDGGNTDQDLGIYTHSLLYGRLYLPKSLLEGMIIKRFTQALQVQVRAVSEQSLRNGGTILGLVQYDKGKYGLEGLYSTDGGLLGFRGLYNFGGDASSSTCDPWTPTPGENNNNNNNNNNNNNGNAQAGEKERIYGRFSVGGELYYGTLNKSGGMSLGARFATLPAHRGTPLTATLTINPLMGNINATYALLAREYCSLATRVDFNVYSYESEWAVGMELWSNRRPAGFLLGASPSNDFEPEPHPPRKKERSFQAKMEWRLDDPEPEPEPQPTPKTRKNDEYKGVLKARLDNNLRMGLLWEGRAKSLIFSIGTGIDLHKLGEPFRSLGLEVQYSS | binds | binds |
| Tob38 (protein, UniProt V5IPB4 1-340) MATTSAAAPPRKWWQVPRPLQKVFDTFPLLAYDVNALPARAQSATSGDLPTLYVFSTEEEALLGAPSFNPNCLKWQAFLKLAGVKFQILPSTNHASPTGALPFILPTRSSPTDAPSPIPSSKLHDYALKYGTSNPPEVSALRLDAYQALLDVPIRNAWLQALYRDPEYTDLLDRFYITPASSSYWVRGALRHQLRRAAETEILKTGPGGAASTAVSLLVDEHSVYRAAVQALEALATLLSESKTGWFFGAETPTIFDASVFAYTHLMLKYMSDAEGEVEGNMGFILASRKLGTMVRSAGSGELEQHHRRLFELLWLADSNAELLDAKARGNKLLQFQLQA | – | binds |
